Experimental data published in the supplement of paper PMC10849652.
This is one part of the list.

Sequences of proteins named here, by UniProt entry; tags and fusion partners are left off. A change or cut given only in a name is not applied to a line headed by its entry.
UniProt Q330K2: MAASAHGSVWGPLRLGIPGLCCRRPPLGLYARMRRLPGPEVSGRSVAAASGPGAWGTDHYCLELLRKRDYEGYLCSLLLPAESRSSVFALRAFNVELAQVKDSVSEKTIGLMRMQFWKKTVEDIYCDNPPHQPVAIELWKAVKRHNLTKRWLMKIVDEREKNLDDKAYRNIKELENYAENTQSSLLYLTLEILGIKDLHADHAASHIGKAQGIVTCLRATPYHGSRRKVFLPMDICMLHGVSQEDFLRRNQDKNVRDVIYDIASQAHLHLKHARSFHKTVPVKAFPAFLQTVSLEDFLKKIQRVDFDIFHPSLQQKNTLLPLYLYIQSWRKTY
UniProt P49821, whole entry, looked up: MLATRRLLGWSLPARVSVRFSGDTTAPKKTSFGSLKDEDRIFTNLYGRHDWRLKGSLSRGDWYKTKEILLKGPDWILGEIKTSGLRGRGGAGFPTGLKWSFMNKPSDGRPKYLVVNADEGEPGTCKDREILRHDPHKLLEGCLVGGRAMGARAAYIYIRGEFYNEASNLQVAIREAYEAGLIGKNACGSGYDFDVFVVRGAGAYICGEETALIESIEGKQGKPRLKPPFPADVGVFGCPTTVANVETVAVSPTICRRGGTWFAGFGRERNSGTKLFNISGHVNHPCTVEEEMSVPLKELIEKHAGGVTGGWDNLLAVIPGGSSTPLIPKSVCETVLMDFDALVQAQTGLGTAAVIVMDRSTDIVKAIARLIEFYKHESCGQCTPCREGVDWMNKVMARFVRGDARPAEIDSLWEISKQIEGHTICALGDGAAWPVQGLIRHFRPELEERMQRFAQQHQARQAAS
UniProt Q8WUY8: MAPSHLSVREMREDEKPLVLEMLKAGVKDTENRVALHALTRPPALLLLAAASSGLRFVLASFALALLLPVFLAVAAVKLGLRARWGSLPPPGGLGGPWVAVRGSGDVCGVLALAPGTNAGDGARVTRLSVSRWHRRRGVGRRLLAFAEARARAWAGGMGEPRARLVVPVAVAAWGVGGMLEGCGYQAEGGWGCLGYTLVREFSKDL
UniProt Q9UHQ1: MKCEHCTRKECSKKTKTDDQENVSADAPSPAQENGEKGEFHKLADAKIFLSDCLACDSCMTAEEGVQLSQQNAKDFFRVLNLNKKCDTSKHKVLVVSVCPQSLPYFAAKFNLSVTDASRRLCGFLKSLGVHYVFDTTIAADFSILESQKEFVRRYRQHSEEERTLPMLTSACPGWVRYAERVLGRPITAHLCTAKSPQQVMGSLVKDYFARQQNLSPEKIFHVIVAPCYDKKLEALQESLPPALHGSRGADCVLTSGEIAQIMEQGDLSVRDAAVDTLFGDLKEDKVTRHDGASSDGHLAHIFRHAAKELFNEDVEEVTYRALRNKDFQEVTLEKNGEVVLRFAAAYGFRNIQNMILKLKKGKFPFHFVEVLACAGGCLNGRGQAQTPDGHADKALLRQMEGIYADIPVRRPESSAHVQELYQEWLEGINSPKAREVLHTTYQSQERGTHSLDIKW
UniProt Q9BSU3: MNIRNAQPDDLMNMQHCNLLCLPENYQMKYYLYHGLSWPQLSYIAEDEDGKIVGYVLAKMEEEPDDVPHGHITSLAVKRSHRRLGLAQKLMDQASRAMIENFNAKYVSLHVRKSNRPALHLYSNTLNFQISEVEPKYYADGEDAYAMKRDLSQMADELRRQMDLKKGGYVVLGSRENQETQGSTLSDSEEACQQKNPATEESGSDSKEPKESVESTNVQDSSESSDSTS
UniProt Q96PU5: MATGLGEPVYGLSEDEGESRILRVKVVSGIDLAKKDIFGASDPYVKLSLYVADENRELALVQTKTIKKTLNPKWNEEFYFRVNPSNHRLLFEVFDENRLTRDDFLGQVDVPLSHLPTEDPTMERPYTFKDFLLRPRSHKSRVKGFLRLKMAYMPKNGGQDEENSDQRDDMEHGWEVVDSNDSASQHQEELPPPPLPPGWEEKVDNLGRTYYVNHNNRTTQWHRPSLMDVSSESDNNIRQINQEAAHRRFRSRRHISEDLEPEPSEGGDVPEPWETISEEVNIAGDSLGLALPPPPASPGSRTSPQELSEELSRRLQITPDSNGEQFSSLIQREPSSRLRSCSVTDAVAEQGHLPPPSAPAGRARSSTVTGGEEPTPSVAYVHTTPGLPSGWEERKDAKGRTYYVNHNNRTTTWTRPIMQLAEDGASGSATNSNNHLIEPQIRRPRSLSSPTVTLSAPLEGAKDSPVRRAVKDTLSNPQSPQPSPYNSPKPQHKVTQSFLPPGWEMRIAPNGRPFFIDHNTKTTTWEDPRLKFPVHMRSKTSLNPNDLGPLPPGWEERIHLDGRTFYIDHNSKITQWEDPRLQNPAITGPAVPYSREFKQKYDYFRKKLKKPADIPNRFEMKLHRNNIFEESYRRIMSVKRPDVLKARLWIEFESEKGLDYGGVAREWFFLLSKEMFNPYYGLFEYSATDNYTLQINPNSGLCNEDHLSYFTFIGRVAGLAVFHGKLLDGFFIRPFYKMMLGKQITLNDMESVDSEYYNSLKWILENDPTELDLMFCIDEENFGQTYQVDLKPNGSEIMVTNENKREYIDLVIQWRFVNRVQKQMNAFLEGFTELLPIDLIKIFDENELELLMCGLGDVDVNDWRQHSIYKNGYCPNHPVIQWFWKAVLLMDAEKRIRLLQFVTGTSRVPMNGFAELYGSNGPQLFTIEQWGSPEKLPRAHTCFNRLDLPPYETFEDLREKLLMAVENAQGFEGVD
UniProt Q5TEU4: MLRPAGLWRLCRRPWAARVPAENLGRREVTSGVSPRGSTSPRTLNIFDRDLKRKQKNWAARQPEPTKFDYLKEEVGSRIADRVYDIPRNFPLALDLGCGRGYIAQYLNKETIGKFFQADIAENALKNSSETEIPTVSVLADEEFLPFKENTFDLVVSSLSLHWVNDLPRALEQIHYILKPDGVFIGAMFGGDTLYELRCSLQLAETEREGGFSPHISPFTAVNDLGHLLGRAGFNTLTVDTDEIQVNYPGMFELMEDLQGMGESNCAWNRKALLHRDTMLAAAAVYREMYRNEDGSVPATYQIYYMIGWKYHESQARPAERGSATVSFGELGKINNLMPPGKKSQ
UniProt Q4G0T1: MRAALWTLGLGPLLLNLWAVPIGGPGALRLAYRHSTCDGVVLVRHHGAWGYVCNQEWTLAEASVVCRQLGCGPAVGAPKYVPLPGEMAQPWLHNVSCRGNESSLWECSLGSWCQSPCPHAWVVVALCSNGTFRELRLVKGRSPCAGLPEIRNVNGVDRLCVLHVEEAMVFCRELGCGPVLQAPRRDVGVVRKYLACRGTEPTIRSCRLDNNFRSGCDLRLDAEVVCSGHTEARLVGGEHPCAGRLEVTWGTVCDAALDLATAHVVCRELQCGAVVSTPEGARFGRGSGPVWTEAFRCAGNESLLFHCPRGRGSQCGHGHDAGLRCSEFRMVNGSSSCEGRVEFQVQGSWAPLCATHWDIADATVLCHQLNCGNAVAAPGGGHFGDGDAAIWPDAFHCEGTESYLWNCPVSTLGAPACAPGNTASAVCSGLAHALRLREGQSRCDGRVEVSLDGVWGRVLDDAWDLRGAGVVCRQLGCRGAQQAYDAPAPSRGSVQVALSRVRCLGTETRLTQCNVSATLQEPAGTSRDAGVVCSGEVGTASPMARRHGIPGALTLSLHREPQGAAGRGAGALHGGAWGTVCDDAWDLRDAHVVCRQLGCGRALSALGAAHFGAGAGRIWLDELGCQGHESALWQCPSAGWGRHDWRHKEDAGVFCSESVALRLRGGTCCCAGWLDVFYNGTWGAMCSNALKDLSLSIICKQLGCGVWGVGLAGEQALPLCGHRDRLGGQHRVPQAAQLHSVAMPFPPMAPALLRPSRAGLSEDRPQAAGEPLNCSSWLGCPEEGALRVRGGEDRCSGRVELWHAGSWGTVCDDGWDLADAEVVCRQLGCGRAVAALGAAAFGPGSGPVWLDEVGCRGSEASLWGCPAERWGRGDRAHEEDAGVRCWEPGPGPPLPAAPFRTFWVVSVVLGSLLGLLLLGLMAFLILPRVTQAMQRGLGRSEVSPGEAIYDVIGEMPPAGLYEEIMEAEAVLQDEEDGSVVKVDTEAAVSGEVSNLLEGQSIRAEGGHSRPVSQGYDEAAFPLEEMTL
UniProt Q86Y39, whole entry, looked up: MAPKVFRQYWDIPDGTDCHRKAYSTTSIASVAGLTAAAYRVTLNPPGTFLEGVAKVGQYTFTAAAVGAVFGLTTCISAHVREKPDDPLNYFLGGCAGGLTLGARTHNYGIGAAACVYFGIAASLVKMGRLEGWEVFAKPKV
UniProt O43674, whole entry, looked up: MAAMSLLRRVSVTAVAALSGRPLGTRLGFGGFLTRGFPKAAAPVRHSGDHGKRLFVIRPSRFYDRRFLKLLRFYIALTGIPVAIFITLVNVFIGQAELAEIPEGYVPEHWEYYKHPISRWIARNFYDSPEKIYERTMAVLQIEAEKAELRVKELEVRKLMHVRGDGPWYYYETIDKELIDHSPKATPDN
UniProt O75489, whole entry, looked up: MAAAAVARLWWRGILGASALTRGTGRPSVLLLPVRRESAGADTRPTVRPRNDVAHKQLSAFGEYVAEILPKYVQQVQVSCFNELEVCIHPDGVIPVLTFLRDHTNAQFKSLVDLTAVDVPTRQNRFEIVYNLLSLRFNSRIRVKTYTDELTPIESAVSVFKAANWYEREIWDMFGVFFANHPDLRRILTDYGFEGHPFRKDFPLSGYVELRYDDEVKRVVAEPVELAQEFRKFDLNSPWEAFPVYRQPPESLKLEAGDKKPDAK
UniProt P56181: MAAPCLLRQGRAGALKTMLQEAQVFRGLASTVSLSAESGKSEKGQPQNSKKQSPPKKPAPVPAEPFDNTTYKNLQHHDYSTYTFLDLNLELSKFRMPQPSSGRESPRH
UniProt Q15843, whole entry, looked up: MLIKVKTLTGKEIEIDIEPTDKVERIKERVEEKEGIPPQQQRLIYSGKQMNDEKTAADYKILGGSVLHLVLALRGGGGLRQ
UniProt Q5VVJ2: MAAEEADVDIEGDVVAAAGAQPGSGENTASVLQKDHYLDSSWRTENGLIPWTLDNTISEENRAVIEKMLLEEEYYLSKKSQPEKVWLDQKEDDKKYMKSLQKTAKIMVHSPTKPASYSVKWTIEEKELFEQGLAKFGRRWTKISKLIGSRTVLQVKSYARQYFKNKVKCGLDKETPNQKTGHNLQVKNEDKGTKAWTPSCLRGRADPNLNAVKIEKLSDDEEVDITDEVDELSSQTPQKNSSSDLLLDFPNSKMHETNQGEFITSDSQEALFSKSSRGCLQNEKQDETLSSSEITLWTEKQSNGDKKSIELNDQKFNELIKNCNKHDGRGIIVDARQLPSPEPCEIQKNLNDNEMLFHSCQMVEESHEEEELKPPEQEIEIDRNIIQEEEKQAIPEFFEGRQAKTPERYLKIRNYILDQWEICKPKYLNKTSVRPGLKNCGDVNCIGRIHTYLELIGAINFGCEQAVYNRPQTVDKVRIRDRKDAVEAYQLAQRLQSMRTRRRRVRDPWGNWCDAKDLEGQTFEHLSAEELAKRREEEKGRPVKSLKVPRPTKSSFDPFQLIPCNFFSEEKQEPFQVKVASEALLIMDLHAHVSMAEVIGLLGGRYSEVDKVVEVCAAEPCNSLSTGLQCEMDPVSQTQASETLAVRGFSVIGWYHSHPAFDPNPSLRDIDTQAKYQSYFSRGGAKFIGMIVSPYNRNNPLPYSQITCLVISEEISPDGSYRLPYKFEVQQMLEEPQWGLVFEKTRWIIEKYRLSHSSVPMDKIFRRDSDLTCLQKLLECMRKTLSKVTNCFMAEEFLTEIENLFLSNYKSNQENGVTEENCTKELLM
UniProt P51970, whole entry, looked up: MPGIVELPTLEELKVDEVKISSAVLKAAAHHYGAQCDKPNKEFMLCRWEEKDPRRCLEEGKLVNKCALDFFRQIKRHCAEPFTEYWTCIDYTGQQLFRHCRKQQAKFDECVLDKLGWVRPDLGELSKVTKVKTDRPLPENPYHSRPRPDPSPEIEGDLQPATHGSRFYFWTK
UniProt Q13564: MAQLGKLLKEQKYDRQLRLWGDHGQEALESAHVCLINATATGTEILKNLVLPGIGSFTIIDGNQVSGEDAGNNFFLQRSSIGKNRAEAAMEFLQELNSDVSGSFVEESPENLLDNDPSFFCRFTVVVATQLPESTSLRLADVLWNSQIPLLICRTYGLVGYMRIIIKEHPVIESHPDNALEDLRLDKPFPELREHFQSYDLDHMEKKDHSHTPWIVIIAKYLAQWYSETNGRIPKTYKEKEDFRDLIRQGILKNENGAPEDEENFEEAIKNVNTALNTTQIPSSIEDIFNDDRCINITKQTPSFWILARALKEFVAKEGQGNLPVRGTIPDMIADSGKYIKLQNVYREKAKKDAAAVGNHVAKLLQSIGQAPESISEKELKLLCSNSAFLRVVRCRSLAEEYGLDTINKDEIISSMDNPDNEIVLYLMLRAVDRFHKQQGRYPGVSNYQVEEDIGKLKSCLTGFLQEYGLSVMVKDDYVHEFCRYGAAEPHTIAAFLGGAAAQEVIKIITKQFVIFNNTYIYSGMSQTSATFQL
UniProt Q9Y5N5: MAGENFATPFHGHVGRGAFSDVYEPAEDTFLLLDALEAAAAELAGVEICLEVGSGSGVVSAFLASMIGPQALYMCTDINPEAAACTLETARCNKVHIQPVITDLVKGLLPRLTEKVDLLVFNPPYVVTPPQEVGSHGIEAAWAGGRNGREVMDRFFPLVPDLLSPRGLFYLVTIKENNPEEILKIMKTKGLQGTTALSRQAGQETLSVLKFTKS

Legend:
Experiment in all cases: log2 fold change, soluble protein after heating vs DMSO (PISA); higher = thermal stabilisation; K562 cells, 10 uM, 30 min; active = over 0.2 and 3.5 SD of the protein, either way, in both replicates (recomputed)
[1] = compound: COC1=CC=C(C=C1)CN2C=CC3=C2C=C(C=C3)C(=O)NO
Procedure, shortened: (§1)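 K562 cells (2×10^6 cells/mL) were treated with 10 μM compound for 30 min, and aliquots were heated for 3 min over 48°C-58°C. Pooled aliquots were extracted in PBS with 0.5% NP-40 at 4°C, and the supernatant after 21,000xg for 90 min was measured by TMTpro 16plex LC-MS/MS with channel sums equalised. Reported thermal stability, relative to control samples and from duplicates, is a log2 fold change.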

[2] = compound: CON(C)C(=O)N1N=C(c2cc(F)ccc2F)S[C@@]1(CCCN)c1ccccc1 [filanesib]
Procedure, shortened: as §1

[3] = compound: CO[C@H]1C[C@@H]2CC[C@@H](C)[C@@](O)(O2)C(=O)C(=O)N2CCCC[C@H]2C(=O)O[C@H]([C@H](C)C[C@@H]2CC[C@H](n3cnnn3)[C@H](OC)C2)CC(=O)[C@H](C)/C=C(\C)[C@@H](O)[C@@H](OC)C(=O)[C@H](C)C[C@H](C)/C=C/C=C/C=C/1C [zotarolimus]
Procedure, shortened: as §1

[4] = compound: COc1cc(C(=O)O)ccc1NC(=O)[C@@H]1N[C@@H](CC(C)(C)C)[C@](C#N)(c2ccc(Cl)cc2F)[C@H]1c1cccc(Cl)c1F [idasanutlin]
Procedure, shortened: as §1

[5] = compound: COc1cc(Nc2ncc3c(n2)-c2ccc(Cl)cc2C(c2c(F)cccc2OC)=NC3)ccc1C(=O)O [alisertib]
Procedure, shortened: as §1

[6] = compound: COc1cc2nc(-c3cc(F)ccc3O)nc(N[C@@H]3CNC[C@H]3C(C)(C)O)c2cc1OC
Procedure, shortened: as §1

[7] = compound: COc1cc2ncnc(Nc3ccc(F)c(Cl)c3)c2cc1OCCCN1CCOCC1 [gefitinib]
Procedure, shortened: as §1

[8] = compound: COc1cccc2cc(-c3nc([C@H]4CC[C@H](C(=O)O)CC4)n4ncnc(N)c34)[nH]c12
Procedure, shortened: as §1

[9] = compound: CS(=O)(=O)CCNCc1ccc(-c2ccc3ncnc(Nc4ccc(OCc5cccc(F)c5)c(Cl)c4)c3c2)o1 [lapatinib]
Procedure, shortened: as §1

[10] = compound: CS(=O)(=O)N1CCN(Cc2cc3nc(-c4cccc5[nH]ncc45)nc(N4CCOCC4)c3s2)CC1 [pictilisib]
Procedure, shortened: as §1

Measured: log2 fold change

NCR3LG1 (UniProt Q68D85)
inactive: [1] 0.035 | [2] 0.087 | [3] -0.026 | [4] 0.055 | [5] -0.067 | [6] 0.087 | [7] -0.05 | [8] 0.041 | [9] 0.05 | [10] 0.122

NDUFAF6 (UniProt Q330K2)
inactive: [1] 0.183 | [2] -0.177 | [3] -0.006 | [4] 0.03 | [5] -0.199 | [6] -0.165 | [7] -0.018 | [8] 0.061 | [9] -0.007 | [10] 0

NDUFV1 (UniProt P49821)
inactive: [1] -0.089 | [2] -0.056 | [3] 0.053 | [4] -0.054 | [5] -0.039 | [6] 0.013 | [7] 0.009 | [8] 0.054 | [9] -0.019 | [10] -0.017

MYO9B (UniProt Q13459)
inactive: [1] -0.057 | [2] 0.231 | [3] -0.002 | [4] 0.059 | [5] 0.08 | [6] 0.061 | [7] 0.055 | [8] -0.099 | [9] -0.031 | [10] 0.036

NAT14 (UniProt Q8WUY8)
inactive: [1] 0.151 | [2] -0.001 | [3] 0.107 | [4] -0.041 | [5] -0.013 | [6] -0.086 | [7] -0.016 | [8] 0.12 | [9] 0.081

NCEH1 isoform 2 (UniProt Q6PIU2)
inactive: [1] -0.042 | [2] -0.025 | [3] -0.024 | [4] -0.058 | [5] -0.055 | [6] -0.024 | [7] -0.002 | [8] 0.05 | [9] -0.024 | [10] -0.014

NARF (UniProt Q9UHQ1)
inactive: [1] -0.114 | [2] 0.088 | [3] 0.029 | [4] 0.003 | [5] 0.03 | [6] 0.024 | [7] -0.026 | [8] -0.011 | [9] -0.03 | [10] -0.03

NAA11 (UniProt Q9BSU3)
inactive: [1] 0.077 | [2] -0.026 | [3] -0.022 | [4] 0.037 | [5] -0.066 | [6] 0.13 | [7] 0.037 | [8] 0.116 | [9] -0.085

NEDD4L (UniProt Q96PU5)
inactive: [1] -0.027 | [2] 0.095 | [3] 0.032 | [4] -0.018 | [5] -0.114 | [6] 0.086 | [7] -0.031 | [8] 0.027 | [9] -0.025 | [10] -0.035

NCBP1 (UniProt Q09161)
inactive: [1] 0.021 | [2] 0.003 | [3] -0.016 | [4] -0.096 | [5] -0.062 | [6] 0.062 | [7] -0.018 | [8] 0.029 | [9] 0.024 | [10] 0.19

MZT2A (UniProt Q6P582)
inactive: [1] 0.024 | [2] 0.016 | [3] -0.038 | [4] -0.015 | [5] -0.027 | [6] -0.087 | [7] -0.031 | [8] -0.025 | [9] 0.091 | [10] -0.081

NDUFAF5 (UniProt Q5TEU4)
inactive: [1] 0.021 | [2] -0.094 | [3] 0.007 | [4] -0.021 | [5] 0.053 | [6] 0.01 | [7] 0 | [8] -0.117 | [9] 0.017 | [10] -0.016

NA isoform 3 (UniProt Q4G0T1)
inactive: [1] -0.007 | [2] 0.049 | [3] 0.044 | [4] 0.052 | [5] -0.09 | [6] 0.039 | [7] 0.016 | [8] 0.106 | [9] 0.112

NDUFA11 (UniProt Q86Y39)
inactive: [1] -0.115 | [2] 0.034 | [3] -0.025 | [4] -0.054 | [5] -0.071 | [6] -0.059 | [7] 0.023 | [8] -0.013 | [9] -0.012 | [10] -0.039

NAA16 (UniProt Q6N069)
inactive: [1] -0.032 | [2] -0.001 | [3] 0.096 | [4] 0.011 | [5] 0.04 | [6] 0.048 | [7] 0 | [8] -0.002 | [9] -0.002 | [10] -0.015

NDUFB5 (UniProt O43674)
inactive: [1] 0.033 | [2] -0.069 | [3] -0.024 | [4] -0.007 | [5] -0.019 | [6] -0.191 | [7] -0.013 | [8] 0.05 | [9] 0.078 | [10] -0.063

NDUFS3 (UniProt O75489)
inactive: [1] 0.006 | [2] -0.078 | [3] 0.003 | [4] -0.064 | [5] -0.093 | [6] -0.033 | [7] -0.026 | [8] 0.027 | [9] 0.021 | [10] 0.003

NDUFV3 (UniProt P56181)
inactive: [1] 0.087 | [2] -0.073 | [3] -0.094 | [4] -0.04 | [5] -0.008 | [6] 0.017 | [7] -0.012 | [8] -0.003 | [9] 0

NDUFB8 (UniProt O95169)
inactive: [1] -0.042 | [2] 0.004 | [3] -0.005 | [4] 0.069 | [5] -0.04 | [6] -0.141 | [7] -0.023 | [8] 0.06 | [9] -0.036 | [10] -0.034

NEDD8 (UniProt Q15843)
inactive: [1] -0.033 | [2] 0.064 | [3] 0.023 | [4] -0.044 | [5] -0.043 | [6] 0.035 | [7] 0.022 | [8] 0.059 | [9] -0.098 | [10] -0.025

MYSM1 (UniProt Q5VVJ2)
inactive: [1] -0.063 | [2] -0.007

NDUFA8 (UniProt P51970)
inactive: [1] -0.008 | [2] -0.072 | [3] -0.046 | [4] 0 | [5] -0.043 | [6] -0.065 | [7] -0.007 | [8] 0.012 | [9] -0.044 | [10] 0.044

NAA25 (UniProt Q14CX7)
inactive: [1] 0.021 | [2] -0.091 | [3] 0.068 | [4] -0.02 | [5] -0.029 | [6] 0.014 | [7] 0.027 | [8] 0.079 | [9] -0.003 | [10] 0.012

NANS (UniProt Q9NR45)
inactive: [1] -0.11 | [2] -0.115 | [3] 0.017 | [4] -0.045 | [5] -0.008 | [6] -0.017 | [7] -0.057 | [8] -0.017 | [9] -0.005 | [10] -0.018

NAE1 (UniProt Q13564)
inactive: [1] 0.002 | [2] -0.029 | [3] 0.011 | [4] 0.018 | [5] -0.074 | [6] 0.072 | [7] 0.032 | [8] 0.025 | [9] -0.002 | [10] -0.003

NDUFC2 (UniProt O95298)
inactive: [1] 0.236 | [2] -0.012 | [3] -0.057 | [4] -0.034 | [5] 0.017 | [6] -0.127 | [7] 0 | [8] 0.105 | [9] -0.048 | [10] -0.011

N6AMT1 (UniProt Q9Y5N5)
inactive: [1] -0.165 | [2] 0.019 | [3] 0.019 | [4] -0.003 | [5] -0.046 | [6] 0.054 | [7] -0.044 | [8] 0.044 | [9] -0.042 | [10] 0.064

NDOR1 isoform 2 (UniProt Q9UHB4)
inactive: [1] -0.01 | [2] 0.039 | [3] 0.039 | [4] -0.044 | [5] 0.073 | [6] 0.109 | [7] -0.033 | [8] -0.024 | [9] 0.003 | [10] -0.077

2 entries drawn at random from those above, as already listed:
NANS (UniProt Q9NR45)
inactive: [1] -0.11 | [2] -0.115 | [3] 0.017 | [4] -0.045 | [5] -0.008 | [6] -0.017 | [7] -0.057 | [8] -0.017 | [9] -0.005 | [10] -0.018

NAE1 (UniProt Q13564)
inactive: [1] 0.002 | [2] -0.029 | [3] 0.011 | [4] 0.018 | [5] -0.074 | [6] 0.072 | [7] 0.032 | [8] 0.025 | [9] -0.002 | [10] -0.003
